The numbers were not newly measured in patent publication US12440455B2, “Methods of administering cannabinoids” (IMPACT NATURALS, INC., priority 2022, dated 2025), which cites them from elsewhere.

For the series the following is noted: clinical studies.

On to `C=C(C)[C@@H]1CCC(C)=C[C@H]1c1c(O)cc(CCCCC)cc1O` [Cannabidiol], for which the oral bioavailability is on record as 5-10%.
